The supplement of paper PMC10849652
The other results are listed elsewhere or left out.

Sequences of proteins named here, by UniProt entry; tags and fusion partners are left off. A change or cut given only in a name is not applied to a line headed by its entry.
UniProt Q6UW63: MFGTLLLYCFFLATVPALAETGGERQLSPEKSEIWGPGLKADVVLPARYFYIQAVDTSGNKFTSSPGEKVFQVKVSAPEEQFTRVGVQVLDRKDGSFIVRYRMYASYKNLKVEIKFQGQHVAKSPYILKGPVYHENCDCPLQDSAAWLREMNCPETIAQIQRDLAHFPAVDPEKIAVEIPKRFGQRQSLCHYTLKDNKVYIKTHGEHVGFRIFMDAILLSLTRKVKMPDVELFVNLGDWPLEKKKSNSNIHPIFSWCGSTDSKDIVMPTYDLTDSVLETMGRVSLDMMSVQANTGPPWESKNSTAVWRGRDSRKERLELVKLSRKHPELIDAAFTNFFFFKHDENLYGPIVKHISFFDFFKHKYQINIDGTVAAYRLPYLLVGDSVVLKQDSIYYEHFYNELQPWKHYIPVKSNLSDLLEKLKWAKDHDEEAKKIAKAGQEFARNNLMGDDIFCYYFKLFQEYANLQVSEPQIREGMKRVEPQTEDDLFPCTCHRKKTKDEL
UniProt Q08752, whole entry, looked up: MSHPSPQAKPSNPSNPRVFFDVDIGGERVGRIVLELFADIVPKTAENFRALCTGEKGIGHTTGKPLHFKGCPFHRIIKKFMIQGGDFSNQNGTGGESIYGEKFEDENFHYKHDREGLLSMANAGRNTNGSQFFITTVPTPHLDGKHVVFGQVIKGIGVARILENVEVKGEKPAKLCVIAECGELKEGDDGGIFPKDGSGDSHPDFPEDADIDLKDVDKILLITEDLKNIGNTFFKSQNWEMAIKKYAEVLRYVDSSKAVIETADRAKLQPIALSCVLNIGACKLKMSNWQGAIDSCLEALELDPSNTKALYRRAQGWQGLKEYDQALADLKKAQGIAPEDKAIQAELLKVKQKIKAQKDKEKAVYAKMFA
UniProt Q9NP80: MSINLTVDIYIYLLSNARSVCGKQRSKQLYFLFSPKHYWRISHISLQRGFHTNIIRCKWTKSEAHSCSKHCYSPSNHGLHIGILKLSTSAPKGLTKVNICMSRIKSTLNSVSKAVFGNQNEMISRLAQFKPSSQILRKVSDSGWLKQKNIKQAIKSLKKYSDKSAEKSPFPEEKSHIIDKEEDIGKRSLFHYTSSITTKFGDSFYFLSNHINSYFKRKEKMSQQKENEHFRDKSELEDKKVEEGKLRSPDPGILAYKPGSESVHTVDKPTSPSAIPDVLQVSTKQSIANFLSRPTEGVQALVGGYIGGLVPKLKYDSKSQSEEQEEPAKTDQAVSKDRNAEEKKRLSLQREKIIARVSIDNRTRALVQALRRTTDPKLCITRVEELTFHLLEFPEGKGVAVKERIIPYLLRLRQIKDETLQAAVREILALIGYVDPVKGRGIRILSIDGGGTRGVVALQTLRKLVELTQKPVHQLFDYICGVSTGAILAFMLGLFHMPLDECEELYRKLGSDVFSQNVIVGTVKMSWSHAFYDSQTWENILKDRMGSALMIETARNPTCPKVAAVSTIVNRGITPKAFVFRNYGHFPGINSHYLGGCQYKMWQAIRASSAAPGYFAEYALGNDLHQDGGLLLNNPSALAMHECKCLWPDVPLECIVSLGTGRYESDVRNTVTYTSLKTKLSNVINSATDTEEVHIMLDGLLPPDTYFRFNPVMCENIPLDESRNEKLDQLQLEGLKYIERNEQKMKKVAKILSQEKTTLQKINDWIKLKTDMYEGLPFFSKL
UniProt Q9H9Y6, whole entry, looked up: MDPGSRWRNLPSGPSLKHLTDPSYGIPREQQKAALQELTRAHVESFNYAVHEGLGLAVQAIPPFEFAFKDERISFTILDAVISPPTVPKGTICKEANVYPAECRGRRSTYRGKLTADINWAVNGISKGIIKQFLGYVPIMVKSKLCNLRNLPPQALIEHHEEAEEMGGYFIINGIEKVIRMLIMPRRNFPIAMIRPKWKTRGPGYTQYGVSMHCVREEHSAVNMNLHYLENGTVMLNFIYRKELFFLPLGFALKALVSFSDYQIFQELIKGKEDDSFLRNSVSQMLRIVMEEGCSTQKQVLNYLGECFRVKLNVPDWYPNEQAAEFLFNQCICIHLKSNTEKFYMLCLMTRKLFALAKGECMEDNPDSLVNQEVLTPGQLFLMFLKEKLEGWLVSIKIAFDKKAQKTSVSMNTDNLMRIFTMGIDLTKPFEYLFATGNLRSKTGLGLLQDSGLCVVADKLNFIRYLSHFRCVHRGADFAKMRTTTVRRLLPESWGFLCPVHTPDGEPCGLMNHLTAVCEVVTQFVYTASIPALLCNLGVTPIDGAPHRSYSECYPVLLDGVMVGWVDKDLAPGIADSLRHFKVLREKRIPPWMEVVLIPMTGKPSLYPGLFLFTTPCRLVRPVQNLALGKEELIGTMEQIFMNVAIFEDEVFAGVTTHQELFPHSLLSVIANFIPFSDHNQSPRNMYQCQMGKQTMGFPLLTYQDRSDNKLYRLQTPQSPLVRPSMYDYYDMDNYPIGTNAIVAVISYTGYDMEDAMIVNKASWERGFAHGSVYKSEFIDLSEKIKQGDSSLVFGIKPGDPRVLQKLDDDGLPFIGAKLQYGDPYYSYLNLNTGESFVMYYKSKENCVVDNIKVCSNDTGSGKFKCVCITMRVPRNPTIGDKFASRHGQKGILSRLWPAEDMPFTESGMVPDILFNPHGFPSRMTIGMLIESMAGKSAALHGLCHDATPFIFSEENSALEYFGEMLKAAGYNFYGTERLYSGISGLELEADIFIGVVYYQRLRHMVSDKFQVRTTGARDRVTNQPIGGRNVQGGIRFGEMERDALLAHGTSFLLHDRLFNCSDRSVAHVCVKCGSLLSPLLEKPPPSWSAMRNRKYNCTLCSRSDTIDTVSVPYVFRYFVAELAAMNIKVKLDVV
UniProt Q9BT43: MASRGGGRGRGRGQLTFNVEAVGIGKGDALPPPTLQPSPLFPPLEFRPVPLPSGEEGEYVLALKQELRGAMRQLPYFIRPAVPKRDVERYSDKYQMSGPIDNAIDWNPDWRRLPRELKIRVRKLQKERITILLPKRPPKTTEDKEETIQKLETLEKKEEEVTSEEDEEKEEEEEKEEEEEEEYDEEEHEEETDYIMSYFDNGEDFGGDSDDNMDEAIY
UniProt P0CG38, whole entry, looked up: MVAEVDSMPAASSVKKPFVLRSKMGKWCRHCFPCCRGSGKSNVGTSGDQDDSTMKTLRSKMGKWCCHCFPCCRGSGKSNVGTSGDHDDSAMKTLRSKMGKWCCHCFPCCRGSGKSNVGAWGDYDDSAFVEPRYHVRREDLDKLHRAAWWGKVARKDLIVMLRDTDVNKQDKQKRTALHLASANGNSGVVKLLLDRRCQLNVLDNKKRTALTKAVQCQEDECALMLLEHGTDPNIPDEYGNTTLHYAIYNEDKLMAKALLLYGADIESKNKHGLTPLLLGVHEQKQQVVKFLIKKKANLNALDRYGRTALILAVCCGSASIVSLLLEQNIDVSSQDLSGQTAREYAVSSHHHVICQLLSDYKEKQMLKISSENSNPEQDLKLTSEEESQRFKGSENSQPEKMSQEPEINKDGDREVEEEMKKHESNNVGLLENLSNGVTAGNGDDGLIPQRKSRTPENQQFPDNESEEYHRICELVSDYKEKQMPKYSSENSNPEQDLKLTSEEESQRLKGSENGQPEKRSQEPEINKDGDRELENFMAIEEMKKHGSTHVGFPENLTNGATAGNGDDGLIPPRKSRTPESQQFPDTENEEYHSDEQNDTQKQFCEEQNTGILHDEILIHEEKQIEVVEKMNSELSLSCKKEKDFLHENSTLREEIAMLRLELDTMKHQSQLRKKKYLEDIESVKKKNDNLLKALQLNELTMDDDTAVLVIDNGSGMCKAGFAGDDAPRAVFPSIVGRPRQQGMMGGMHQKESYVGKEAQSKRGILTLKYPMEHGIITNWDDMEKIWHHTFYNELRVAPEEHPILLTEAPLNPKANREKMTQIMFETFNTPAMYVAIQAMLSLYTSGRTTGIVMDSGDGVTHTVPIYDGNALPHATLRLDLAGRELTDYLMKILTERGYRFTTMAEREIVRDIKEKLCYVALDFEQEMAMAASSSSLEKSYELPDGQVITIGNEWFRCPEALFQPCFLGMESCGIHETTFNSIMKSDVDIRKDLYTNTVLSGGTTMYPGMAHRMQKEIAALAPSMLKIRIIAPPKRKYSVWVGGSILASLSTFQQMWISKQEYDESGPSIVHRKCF
UniProt Q96AD5: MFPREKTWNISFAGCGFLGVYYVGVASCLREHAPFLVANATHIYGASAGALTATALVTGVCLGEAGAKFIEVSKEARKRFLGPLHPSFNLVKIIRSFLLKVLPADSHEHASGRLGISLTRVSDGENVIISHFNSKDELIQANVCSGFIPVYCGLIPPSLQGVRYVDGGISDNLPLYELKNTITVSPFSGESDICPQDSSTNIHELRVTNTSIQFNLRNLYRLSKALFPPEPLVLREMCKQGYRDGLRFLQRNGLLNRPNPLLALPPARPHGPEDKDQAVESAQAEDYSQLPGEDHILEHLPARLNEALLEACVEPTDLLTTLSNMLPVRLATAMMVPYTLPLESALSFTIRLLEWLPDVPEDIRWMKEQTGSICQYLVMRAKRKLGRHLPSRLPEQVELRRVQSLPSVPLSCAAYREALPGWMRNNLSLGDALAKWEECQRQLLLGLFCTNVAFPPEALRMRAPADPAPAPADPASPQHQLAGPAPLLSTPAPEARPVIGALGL
UniProt P13797: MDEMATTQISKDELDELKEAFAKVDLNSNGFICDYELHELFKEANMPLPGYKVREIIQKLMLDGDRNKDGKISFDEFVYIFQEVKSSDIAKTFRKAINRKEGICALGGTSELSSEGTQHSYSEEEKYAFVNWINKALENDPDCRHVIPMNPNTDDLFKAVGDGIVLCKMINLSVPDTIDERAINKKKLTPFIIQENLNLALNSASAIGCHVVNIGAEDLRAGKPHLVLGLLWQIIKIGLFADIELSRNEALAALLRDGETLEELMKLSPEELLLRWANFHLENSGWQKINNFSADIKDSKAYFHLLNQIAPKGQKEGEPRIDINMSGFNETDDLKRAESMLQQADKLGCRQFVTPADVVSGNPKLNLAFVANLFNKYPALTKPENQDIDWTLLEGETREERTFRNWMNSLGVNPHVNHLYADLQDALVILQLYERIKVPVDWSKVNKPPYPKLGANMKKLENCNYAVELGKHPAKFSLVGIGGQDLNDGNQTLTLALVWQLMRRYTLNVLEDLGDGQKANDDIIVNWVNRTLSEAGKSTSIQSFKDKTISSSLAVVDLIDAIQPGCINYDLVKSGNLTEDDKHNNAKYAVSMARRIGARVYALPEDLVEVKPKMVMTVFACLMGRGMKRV
UniProt Q8IY17: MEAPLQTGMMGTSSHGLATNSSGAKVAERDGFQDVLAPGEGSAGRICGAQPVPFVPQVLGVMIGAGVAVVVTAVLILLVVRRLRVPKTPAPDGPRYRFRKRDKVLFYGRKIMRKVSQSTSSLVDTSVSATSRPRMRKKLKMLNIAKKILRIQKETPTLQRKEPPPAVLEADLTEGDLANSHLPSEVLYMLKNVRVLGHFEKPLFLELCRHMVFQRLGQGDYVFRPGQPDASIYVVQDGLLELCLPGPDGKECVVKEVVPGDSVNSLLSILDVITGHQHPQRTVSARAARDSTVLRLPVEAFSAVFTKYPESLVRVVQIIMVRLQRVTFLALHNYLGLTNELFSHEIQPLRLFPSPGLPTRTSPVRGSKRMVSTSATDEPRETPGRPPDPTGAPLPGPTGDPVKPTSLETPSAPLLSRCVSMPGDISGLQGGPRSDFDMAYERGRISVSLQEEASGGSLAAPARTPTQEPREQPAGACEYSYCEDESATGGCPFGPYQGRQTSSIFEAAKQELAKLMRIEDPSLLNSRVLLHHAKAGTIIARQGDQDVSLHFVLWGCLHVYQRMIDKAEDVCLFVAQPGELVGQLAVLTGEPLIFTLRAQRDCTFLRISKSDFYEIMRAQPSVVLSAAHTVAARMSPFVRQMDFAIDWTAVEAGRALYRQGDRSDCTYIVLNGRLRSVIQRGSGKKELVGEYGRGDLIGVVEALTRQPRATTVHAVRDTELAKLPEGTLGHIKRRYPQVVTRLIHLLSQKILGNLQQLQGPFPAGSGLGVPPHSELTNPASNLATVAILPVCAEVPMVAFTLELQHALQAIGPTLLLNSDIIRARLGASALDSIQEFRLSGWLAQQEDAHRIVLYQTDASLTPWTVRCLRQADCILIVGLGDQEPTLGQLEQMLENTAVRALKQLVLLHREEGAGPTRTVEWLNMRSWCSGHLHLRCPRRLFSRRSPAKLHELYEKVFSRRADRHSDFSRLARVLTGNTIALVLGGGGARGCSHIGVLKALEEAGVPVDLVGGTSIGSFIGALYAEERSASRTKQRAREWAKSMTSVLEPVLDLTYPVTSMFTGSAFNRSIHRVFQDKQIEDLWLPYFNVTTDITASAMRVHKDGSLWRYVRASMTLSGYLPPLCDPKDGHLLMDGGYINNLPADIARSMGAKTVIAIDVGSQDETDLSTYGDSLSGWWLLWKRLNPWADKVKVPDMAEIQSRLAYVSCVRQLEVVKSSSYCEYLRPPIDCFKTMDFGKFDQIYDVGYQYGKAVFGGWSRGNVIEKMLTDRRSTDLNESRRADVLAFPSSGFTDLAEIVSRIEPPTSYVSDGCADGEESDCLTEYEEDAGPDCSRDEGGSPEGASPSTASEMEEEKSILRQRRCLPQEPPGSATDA

Experiments:
Assay in all cases: log2 fold change, soluble protein after heating vs DMSO (PISA); higher = thermal stabilisation; K562 lysate, 10 uM; active = over 0.2 and 3.5 SD of the protein, either way, in both replicates (recomputed)
[1] = compound: Cc1cn(-c2cc(NC(=O)c3ccc(C)c(Nc4nccc(-c5cccnc5)n4)c3)cc(C(F)(F)F)c2)cn1 [nilotinib]
Summary of the method: (§1)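 Soluble protein was defined as the supernatant remaining after 21,000xg for 90 min, following pooling of heated aliquots and adjustment to 0.5% NP-40 at 4°C. Before that, crude K562 extract at 1 mg/mL protein in PBS pH 7.4 with 1 mM MgCl2 was treated with 10 μM compound for 30 min and heated for 3 min across 48°C-58°C. Quantification used TMTpro 16plex LC-MS/MS with channel sums equalised, and values are log-two fold changes in thermal stability relative to solvent controls from duplicates.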

[2] = compound: Cc1nc(Nc2n[nH]c3c2CN(C(=O)N[C@H](CN(C)C)c2ccccc2)C3(C)C)c2sccc2n1
Summary of the method: as §1

[3] = compound: Cc1nc(Nc2ncc(C(=O)Nc3c(C)cccc3Cl)s2)cc(N2CCN(CCO)CC2)n1 [dasatinib]
Summary of the method: as §1

[4] = compound: Cc1ncc(-c2ccnc(Nc3ccc(S(C)(=O)=O)cc3)n2)n1C(C)C
Summary of the method: as §1

[5] = compound: Cn1cc(-c2ccc3c(c2)CCN3C(=O)Cc2cccc(C(F)(F)F)c2)c2c(N)ncnc21
Summary of the method: as §1

[6] = compound: Cn1cc(CNCC2CCN(c3ncc(C(=O)NO)cn3)CC2)c2ccccc21 [quisinostat]
Summary of the method: as §1

[7] = compound: Cn1cncc1[C@@](N)(c1ccc(Cl)cc1)c1ccc2c(c1)c(-c1cccc(Cl)c1)cc(=O)n2C [tipifarnib]
Summary of the method: as §1

[8] = compound: NC(=O)Nc1cc(-c2cccc(F)c2)sc1C(=O)N[C@H]1CCCNC1
Summary of the method: as §1

[9] = compound: NC(=O)c1cnc(N[C@@H]2CCCC[C@@H]2N)nc1Nc1cccc(-n2nccn2)c1
Summary of the method: as §1

[10] = compound: NC1(c2ccc(-c3nc4ccn5c(=O)[nH]nc5c4cc3-c3ccccc3)cc2)CCC1
Summary of the method: as §1

[11] = compound: NCC(=O)Nc1ccc(-n2nc(C(F)(F)F)cc2-c2ccc3c(ccc4ccccc43)c2)cc1
Summary of the method: as §1

[12] = compound: O=C(CCCCCCC(=O)Nc1ccccc1)NO [vorinostat]
Summary of the method: as §1

[13] = compound: O=C(O)c1ccc2c(c1)nc(Nc1cccc(Cl)c1)c1ccncc12 [silmitasertib]
Summary of the method: as §1

[14] = compound: O=C1NC(=O)C(c2cnc3ccccn23)=C1c1cn2c3c(cc(F)cc13)CN(C(=O)N1CCCCC1)CC2
Summary of the method: as §1

[15] = compound: c1cn2cc(-c3ccc4cn[nH]c4c3)nc(Nc3ccc(N4CCOCC4)cc3)c2n1 [entospletinib]
Summary of the method: as §1

Measured: log2 fold change

POGLUT2 (UniProt Q6UW63)
inactive: [1] 0.026 | [2] -0.015 | [3] -0.007 | [4] -0.04 | [5] 0.013 | [6] -0.019 | [7] 0.026 | [8] 0.024 | [9] -0.023 | [10] 0.001 | [11] -0.032 | [12] 0.06 | [13] 0.02 | [14] -0.018 | [15] -0.011

PPAN isoform 3 (UniProt Q9NQ55)
inactive: [1] 0.047 | [2] -0.064 | [3] -0.017 | [4] 0.023 | [5] 0.001 | [6] -0.093 | [7] -0.033 | [8] 0.005 | [9] 0.011 | [10] -0.016 | [11] 0 | [12] 0.076 | [13] -0.039 | [14] 0.021 | [15] 0.039

PPID (UniProt Q08752)
inactive: [1] 0 | [2] -0.007 | [3] -0.002 | [4] 0.013 | [5] 0.015 | [6] -0.015 | [7] 0.03 | [8] 0.028 | [9] 0.009 | [10] -0.001 | [11] 0 | [12] -0.116 | [13] 0.025 | [14] 0.008 | [15] 0.022

POU2F1 isoform 6 (UniProt P14859)
inactive: [1] 0.078 | [2] -0.011 | [3] 0.015 | [4] 0.046 | [5] 0.03 | [6] 0.05 | [7] -0.027 | [8] 0.053 | [9] 0.01 | [10] 0.02 | [11] -0.012 | [12] -0.141 | [13] -0.02 | [14] -0.022 | [15] -0.022

PNPLA8 (UniProt Q9NP80)
inactive: [1] -0.01 | [2] -0.052 | [3] -0.047 | [4] 0.047 | [5] 0.04 | [6] 0.023 | [7] -0.125 | [8] 0.023 | [9] 0.007 | [10] -0.018 | [11] 0.054 | [12] 0.04 | [13] 0.064 | [14] 0.004 | [15] -0.008

PLOD3 (UniProt O60568)
inactive: [1] 0.008 | [2] -0.018 | [3] 0 | [4] -0.022 | [5] 0.029 | [6] 0.044 | [7] -0.012 | [8] 0.032 | [9] -0.005 | [10] -0.011 | [11] -0.019 | [12] 0.129 | [13] -0.004 | [14] -0.031 | [15] -0.002

POLR1B isoform 3 (UniProt Q9H9Y6)
inactive: [1] 0.011 | [2] 0.013 | [3] -0.017 | [4] 0.021 | [5] 0.05 | [6] 0.037 | [7] -0.017 | [8] 0.021 | [9] -0.04 | [10] 0.029 | [11] 0.05 | [12] -0.138 | [13] 0.048 | [14] -0.028 | [15] -0.005

POLR3C (UniProt Q9BUI4)
inactive: [1] -0.006 | [2] 0.011 | [3] 0.024 | [4] 0.016 | [5] -0.017 | [6] -0.011 | [7] 0.015 | [8] 0.002 | [9] -0.022 | [10] -0.009 | [11] 0.017 | [12] 0.02 | [13] -0.04 | [14] -0.048 | [15] -0.014

POLR3GL (UniProt Q9BT43)
inactive: [1] -0.017 | [2] 0.01 | [3] -0.07 | [4] -0.024 | [5] 0.043 | [6] -0.06 | [7] 0.021 | [8] -0.051 | [9] -0.03 | [10] -0.085 | [11] -0.01 | [12] 0.117 | [13] 0.025 | [14] 0.033 | [15] -0.012

POTEI (UniProt P0CG38)
inactive: [1] 0.09 | [2] -0.038 | [3] -0.006 | [4] -0.01 | [5] -0.01 | [6] -0.057 | [7] 0.04 | [8] 0.041 | [9] 0.008 | [10] -0.005 | [11] 0.031 | [12] -0.018 | [13] 0.016 | [14] 0.033 | [15] 0.036

PPCDC (UniProt Q96CD2)
inactive: [1] -0.002 | [2] -0.014 | [3] -0.06 | [4] -0.017 | [5] -0.04 | [6] -0.015 | [7] 0.022 | [8] 0.013 | [9] 0 | [10] 0.047 | [11] 0.001 | [12] -0.002 | [13] 0.071 | [14] -0.015 | [15] 0.002

PLXNA1 (UniProt Q9UIW2)
inactive: [1] 0.017 | [2] -0.018 | [3] 0.007 | [4] 0.038 | [5] -0.03 | [6] 0.017 | [7] 0 | [8] 0.016 | [9] 0.014 | [10] 0.02 | [11] -0.012 | [12] 0.043 | [13] -0.006 | [14] 0 | [15] -0.018

POLR3G (UniProt O15318)
inactive: [1] -0.054 | [2] -0.029 | [3] 0.047 | [4] 0.04 | [5] 0 | [6] -0.028 | [7] 0.027 | [8] 0.014 | [9] 0.016 | [10] 0.063 | [11] 0.039 | [12] 0.106 | [13] -0.035 | [14] 0.047 | [15] -0.054

Copied from the entries so far (2 entries):
PPCDC (UniProt Q96CD2)
inactive: [1] -0.002 | [2] -0.014 | [3] -0.06 | [4] -0.017 | [5] -0.04 | [6] -0.015 | [7] 0.022 | [8] 0.013 | [9] 0 | [10] 0.047 | [11] 0.001 | [12] -0.002 | [13] 0.071 | [14] -0.015 | [15] 0.002

PLXNA1 (UniProt Q9UIW2)
inactive: [1] 0.017 | [2] -0.018 | [3] 0.007 | [4] 0.038 | [5] -0.03 | [6] 0.017 | [7] 0 | [8] 0.016 | [9] 0.014 | [10] 0.02 | [11] -0.012 | [12] 0.043 | [13] -0.006 | [14] 0 | [15] -0.018

The results go on:

POLR2F (UniProt P61218)
inactive: [1] 0.023 | [2] -0.019 | [3] 0.274 | [4] 0.107 | [5] -0.015 | [6] -0.034 | [7] 0.015 | [8] 0.008 | [9] -0.052 | [10] -0.021 | [11] -0.019 | [12] 0.171 | [13] 0.008 | [14] 0.027 | [15] -0.086

PNPLA2 (UniProt Q96AD5)
inactive: [1] -0.006 | [2] 0.006 | [3] -0.032 | [4] 0.041 | [5] 0.055 | [6] 0.003 | [7] -0.014 | [8] -0.006 | [9] 0.018 | [10] -0.04 | [11] -0.016 | [12] 0.089 | [13] 0.019 | [14] 0.039 | [15] -0.016

PLS1 (UniProt Q14651)
inactive: [1] 0.014 | [2] 0.009 | [3] -0.004 | [4] 0.03 | [5] 0.008 | [6] -0.01 | [7] -0.012 | [8] 0 | [9] -0.008 | [10] -0.005 | [11] 0.022 | [12] 0.086 | [13] -0.024 | [14] 0.012 | [15] 0.005

PON2 (UniProt Q15165)
inactive: [1] 0.155 | [2] -0.009 | [3] 0.13 | [4] -0.097 | [5] -0.059 | [6] -0.089 | [7] -0.158 | [8] 0 | [9] 0.006 | [10] -0.047 | [11] -0.016 | [12] 0.073 | [13] -0.013 | [14] 0.005 | [15] 0.008

PLS3 (UniProt P13797)
inactive: [1] 0.029 | [2] 0.026 | [3] 0.018 | [4] 0.024 | [5] -0.019 | [6] -0.024 | [7] 0.011 | [8] -0.004 | [9] -0.001 | [10] -0.013 | [11] 0.019 | [12] 0.125 | [13] -0.007 | [14] 0.008 | [15] 0.009

PNPLA6 (UniProt Q8IY17)
inactive: [1] 0.061 | [2] 0.035 | [3] -0.133 | [4] 0.018 | [5] 0.093 | [6] -0.168 | [7] -0.075 | [8] -0.002 | [9] -0.03 | [10] -0.023 | [11] 0.022 | [12] -0.077 | [13] 0.037 | [14] 0.085 | [15] 0.098
